According to patent US4855320A, “5-arylalkyl-4-alkoxy-2(5H)-furanones, intermediates and processes for the preparation thereof and medicaments containing them” (Dr. Willmar Schwabe GmbH & Company, priority 1986, dated 1989):

Assay: Neurotoxicity observation (motility, muscle tonus, respiratory frequency, body temperature, general behaviour)
Design: species or system mice (NMRI)
Conditions: in vivo, po, mouse; read-out: Neurotoxic limiting dose in the mouse
Experimental: During the above-described experiments, the animals were observed during the whole of the experimental period (up to 4 hours) for signs of substance-caused changes of behaviour and neurotoxicity (motility, muscle tonus, respiratory frequency, body temperature and general behaviour). Up to a dosage of 100 mg./kg., in the case of all the tested compounds, no neurotoxic symptoms were ascertained. In comparison hereto, the following Table 16 sets out the lower limiting dosages of conventional anticonvulsives which, after oral administration, bring about neurotoxicity symptoms in mice.

CN1C(=O)CN=C(c2ccccc2)c2cc(Cl)ccc21 [Diazepam, reference compound]
TD50: 40 mg/kg
